Results are given in words; binding and its absence hold for the method and conditions named. In cells and extracts the contact can be indirect. These calls come from enrichment with a bait or labelling near it, and not all partners need be listed.
B1: COG5 (protein, UniProt Q9UP83 1-860)
chain: MGWVGGRRRDSASPPGRSRSAADDINPAPANMEGGGGSVAVAGLGARGSGAAAATVRELLQDGCYSDFLNEDFDVKTYTSQSIHQAVIAEQLAKLAQGISQLDRELHLQVVARHEDLLAQATGIESLEGVLQMMQTRIGALQGAVDRIKAKIVEPYNKIVARTAQLARLQVACDLLRRIIRILNLSKRLQGQLQGGSREITKAAQSLNELDYLSQGIDLSGIEVIENDLLFIARARLEVENQAKRLLEQGLETQNPTQVGTALQVFYNLGTLKDTITSVVDGYCATLEENINSALDIKVLTQPSQSAVRGGPGRSTMPTPGNTAALRASFWTNMEKLMDHIYAVCGQVQHLQKVLAKKRDPVSHICFIEEIVKDGQPEIFYTFWNSVTQALSSQFHMATNSSMFLKQAFEGEYPKLLRLYNDLWKRLQQYSQHIQGNFNASGTTDLYVDLQHMEDDAQDIFIPKKPDYDPEKALKDSLQPYEAAYLSKSLSRLFDPINLVFPPGGRNPPSSDELDGIIKTIASELNVAAVDTNLTLAVSKNVAKTIQLYSVKSEQLLSTQGDASQVIGPLTEGQRRNVAVVNSLYKLHQSVTKVVSSQSSFPLAAEQTIISALKAIHALMENAVQPLLTSVGDAIEAIIITMHQEDFSGSLSSSGKPDVPCSLYMKELQGFIARVMSDYFKHFECLDFVFDNTEAIAQRAVELFIRHASLIRPLGEGGKMRLAADFAQMELAVGPFCRRVSDLGKSYRMLRSFRPLLFQASEHVASSPALGDVIPFSIIIQFLFTRAPAELKSPFQRAEWSHTRFSQWLDDHPSEKDRLLLIRGALEAYVQSVRSREGKEFAPVYPIMVQLLQKAMSALQ
B2: COG8 (protein, UniProt Q96MW5 1-612)
chain: MATAATIPSVATATAAALGEVEDEGLLASLFRDRFPEAQWRERPDVGRYLRELSGSGLERLRREPERLAEERAQLLQQTRDLAFANYKTFIRGAECTERIHRLFGDVEASLGRLLDRLPSFQQSCRNFVKEAEEISSNRRMNSLTLNRHTEILEILEIPQLMDTCVRNSYYEEALELAAYVRRLERKYSSIPVIQGIVNEVRQSMQLMLSQLIQQLRTNIQLPACLRVIGYLRRMDVFTEAELRVKFLQARDAWLRSILTAIPNDDPYFHITKTIEASRVHLFDIITQYRAIFSDEDPLLPPAMGEHTVNESAIFHGWVLQKVSQFLQVLETDLYRGIGGHLDSLLGQCMYFGLSFSRVGADFRGQLAPVFQRVAISTFQKAIQETVEKFQEEMNSYMLISAPAILGTSNMPAAVPATQPGTLQPPMVLLDFPPLACFLNNILVAFNDLRLCCPVALAQDVTGALEDALAKVTKIILAFHRAEEAAFSSGEQELFVQFCTVFLEDLVPYLNRCLQVLFPPAQIAQTLGIPPTQLSKYGNLGHVNIGAIQEPLAFILPKRETLFTLDDQALGPELTAPAPEPPAEEPRLEPAGPACPEGGRAETQAEPPSVGP
B3: COPB2 (protein, UniProt P35606 1-906)
chain: MPLRLDIKRKLTARSDRVKSVDLHPTEPWMLASLYNGSVCVWNHETQTLVKTFEVCDLPVRAAKFVARKNWVVTGADDMQIRVFNYNTLERVHMFEAHSDYIRCIAVHPTQPFILTSSDDMLIKLWDWDKKWSCSQVFEGHTHYVMQIVINPKDNNQFASASLDRTIKVWQLGSSSPNFTLEGHEKGVNCIDYYSGGDKPYLISGADDRLVKIWDYQNKTCVQTLEGHAQNVSCASFHPELPIIITGSEDGTVRIWHSSTYRLESTLNYGMERVWCVASLRGSNNVALGYDEGSIIVKLGREEPAMSMDANGKIIWAKHSEVQQANLKAMGDAEIKDGERLPLAVKDMGSCEIYPQTIQHNPNGRFVVVCGDGEYIIYTAMALRNKSFGSAQEFAWAHDSSEYAIRESNSIVKIFKNFKEKKSFKPDFGAESIYGGFLLGVRSVNGLAFYDWDNTELIRRIEIQPKHIFWSDSGELVCIATEESFFILKYLSEKVLAAQETHEGVTEDGIEDAFEVLGEIQEIVKTGLWVGDCFIYTSSVNRLNYYVGGEIVTIAHLDRTMYLLGYIPKDNRLYLGDKELNIISYSLLVSVLEYQTAVMRRDFSMADKVLPTIPKEQRTRVAHFLEKQGFKQQALTVSTDPEHRFELALQLGELKIAYQLAVEAESEQKWKQLAELAISKCQFGLAQECLHHAQDYGGLLLLATASGNANMVNKLAEGAERDGKNNVAFMSYFLQGKVDACLELLIRTGRLPEAAFLARTYLPSQVSRVVKLWRENLSKVNQKAAESLADPTEYENLFPGLKEAFVVEEWVKETHADLWPAKQYPLVTPNEERNVMEEGKDFQPSRSTAQQELDGKPASPTPVIVASHTANKEEKSLLELEVDLDNLELEDIDTTDINLDEDILDD
B4: COPG2 (protein, UniProt Q9UBF2 1-871)
chain: MIKKFDKKDEESGSGSNPFQHLEKSAVLQEARIFNETPINPRRCLHILTKILYLLNQGEHFGTTEATEAFFAMTRLFQSNDQTLRRMCYLTIKEMATISEDVIIVTSSLTKDMTGKEDVYRGPAIRALCRITDGTMLQAIERYMKQAIVDKVSSVSSSALVSSLHMMKISYDVVKRWINEAQEAASSDNIMVQYHALGVLYHLRKNDRLAVSKMLNKFTKSGLKSQFAYCMLIRIASRLLKETEDGHESPLFDFIESCLRNKHEMVIYEAASAIIHLPNCTARELAPAVSVLQLFCSSPKPALRYAAVRTLNKVAMKHPSAVTACNLDLENLITDSNRSIATLAITTLLKTGSESSVDRLMKQISSFVSEISDEFKVVVVQAISALCQKYPRKHSVMMTFLSNMLRDDGGFEYKRAIVDCIISIVEENPESKEAGLAHLCEFIEDCEHTVLATKILHLLGKEGPRTPVPSKYIRFIFNRVVLENEAVRAAAVSALAKFGAQNESLLPSILVLLQRCMMDTDDEVRDRATFYLNVLQQRQMALNATYIFNGLTVSVPGMEKALHQYTLEPSEKPFDMKSIPLAMAPVFEQKAEITLVATKPEKLAPSRQDIFQEQLAAIPEFLNIGPLFKSSEPVQLTEAETEYFVRCIKHMFTNHIVFQFDCTNTLNDQLLEKVTVQMEPSDSYEVLSCIPAPSLPYNQPGICYTLVRLPDDDPTAVAGSFSCTMKFTVRDCDPNTGVPDEDGYDDEYVLEDLEVTVSDHIQKVLKPNFAAAWEEVGDTFEKEETFALSSTKTLEEAVNNIITFLGMQPCERSDKVPENKNSHSLYLAGIFRGGYDLLVRSRLALADGVTMQVTVRSKERTPVDVILASVG

Chains of the proteins cited; added tags and fusions are not shown.
UniProt P03372: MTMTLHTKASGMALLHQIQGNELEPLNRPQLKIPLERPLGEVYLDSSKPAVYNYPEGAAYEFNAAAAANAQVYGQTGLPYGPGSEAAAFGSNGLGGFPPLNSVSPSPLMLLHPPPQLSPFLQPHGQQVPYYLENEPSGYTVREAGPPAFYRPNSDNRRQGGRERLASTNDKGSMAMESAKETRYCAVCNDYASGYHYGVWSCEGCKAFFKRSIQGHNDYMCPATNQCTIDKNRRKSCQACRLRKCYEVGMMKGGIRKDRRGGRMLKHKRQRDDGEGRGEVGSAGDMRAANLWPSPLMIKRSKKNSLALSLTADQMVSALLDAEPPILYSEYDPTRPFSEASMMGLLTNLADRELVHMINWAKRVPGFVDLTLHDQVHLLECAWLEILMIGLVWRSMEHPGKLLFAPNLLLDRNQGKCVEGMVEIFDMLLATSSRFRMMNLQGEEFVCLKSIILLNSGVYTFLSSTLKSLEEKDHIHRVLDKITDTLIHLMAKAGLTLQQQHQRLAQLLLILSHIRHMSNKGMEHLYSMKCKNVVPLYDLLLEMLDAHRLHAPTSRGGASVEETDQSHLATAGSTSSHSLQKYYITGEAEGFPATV

target: estrogen receptor alpha (ER) (human (endogenous in MCF-7 and ZR-75)) (UniProt P03372); assay: affinity purification with mass spectrometry; anti-ER antibody (Santa Cruz sc-8002) on Dynabeads Protein G, 1.5 mg lysate of MCF-7 or ZR-75 cells overnight at 4°C; cells starved, vehicle or 10 µM ERX-11 for 2 hr, then 10 nM E2 for 2 hr; the named proteins are ER binders whose co-precipitation was disrupted by ERX-11

binding, binds:
B1, B2, B3, B4

— publication PMC5548489
